Experimental data published in the supplement of paper PMC11006884.
The targets with a hit were mostly taken out for another list; the other results follow. The data scatter; read single values as rough. Only a part is listed here, and it is no random draw.

Amino acid sequences for entries named in this document (tags omitted). A change or cut given only in a name is not applied to a line headed by its entry.
UniProt Q3KQU3: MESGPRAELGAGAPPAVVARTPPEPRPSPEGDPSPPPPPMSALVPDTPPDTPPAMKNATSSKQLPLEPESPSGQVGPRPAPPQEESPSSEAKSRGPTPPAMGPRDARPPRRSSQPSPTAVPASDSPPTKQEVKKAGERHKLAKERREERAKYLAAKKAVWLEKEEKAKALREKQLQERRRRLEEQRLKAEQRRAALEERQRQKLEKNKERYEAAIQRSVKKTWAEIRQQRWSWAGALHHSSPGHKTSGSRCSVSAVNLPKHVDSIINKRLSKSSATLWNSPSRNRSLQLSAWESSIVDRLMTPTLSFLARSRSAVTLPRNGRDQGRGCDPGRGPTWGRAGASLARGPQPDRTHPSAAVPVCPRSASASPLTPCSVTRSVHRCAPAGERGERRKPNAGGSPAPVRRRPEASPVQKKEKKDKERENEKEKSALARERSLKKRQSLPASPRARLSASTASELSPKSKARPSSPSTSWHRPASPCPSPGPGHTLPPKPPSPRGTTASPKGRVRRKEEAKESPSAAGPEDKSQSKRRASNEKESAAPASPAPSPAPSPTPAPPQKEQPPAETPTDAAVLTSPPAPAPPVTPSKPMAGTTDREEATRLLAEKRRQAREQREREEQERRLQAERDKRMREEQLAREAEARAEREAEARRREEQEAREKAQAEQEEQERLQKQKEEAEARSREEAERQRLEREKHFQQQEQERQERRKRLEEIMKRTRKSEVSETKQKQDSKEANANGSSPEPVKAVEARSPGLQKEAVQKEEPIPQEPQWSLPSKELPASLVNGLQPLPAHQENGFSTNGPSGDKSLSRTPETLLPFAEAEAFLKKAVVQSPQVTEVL
UniProt Q56VL3: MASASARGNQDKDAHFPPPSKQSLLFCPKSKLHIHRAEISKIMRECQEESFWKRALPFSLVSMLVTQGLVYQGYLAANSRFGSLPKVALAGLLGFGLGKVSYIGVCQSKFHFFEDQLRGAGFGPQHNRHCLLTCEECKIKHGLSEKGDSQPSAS
UniProt Q1KMD3: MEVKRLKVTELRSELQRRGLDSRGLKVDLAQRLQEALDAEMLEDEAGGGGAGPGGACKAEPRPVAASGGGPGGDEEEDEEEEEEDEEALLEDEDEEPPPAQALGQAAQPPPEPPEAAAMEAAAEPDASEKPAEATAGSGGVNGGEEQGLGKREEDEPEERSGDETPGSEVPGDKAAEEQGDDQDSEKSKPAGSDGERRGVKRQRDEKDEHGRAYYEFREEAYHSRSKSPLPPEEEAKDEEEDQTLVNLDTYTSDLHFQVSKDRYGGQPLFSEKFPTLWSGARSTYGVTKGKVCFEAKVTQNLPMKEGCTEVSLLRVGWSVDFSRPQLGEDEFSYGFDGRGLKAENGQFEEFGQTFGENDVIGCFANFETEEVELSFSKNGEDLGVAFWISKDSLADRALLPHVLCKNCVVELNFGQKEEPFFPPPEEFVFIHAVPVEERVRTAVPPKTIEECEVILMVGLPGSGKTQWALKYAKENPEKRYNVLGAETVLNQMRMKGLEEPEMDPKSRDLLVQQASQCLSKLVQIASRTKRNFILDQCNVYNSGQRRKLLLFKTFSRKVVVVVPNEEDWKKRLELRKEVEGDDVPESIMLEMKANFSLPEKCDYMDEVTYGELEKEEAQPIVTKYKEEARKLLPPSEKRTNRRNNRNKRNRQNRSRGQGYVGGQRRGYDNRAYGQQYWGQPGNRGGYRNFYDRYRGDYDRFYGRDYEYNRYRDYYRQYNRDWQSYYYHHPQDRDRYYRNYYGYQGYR
UniProt Q15645: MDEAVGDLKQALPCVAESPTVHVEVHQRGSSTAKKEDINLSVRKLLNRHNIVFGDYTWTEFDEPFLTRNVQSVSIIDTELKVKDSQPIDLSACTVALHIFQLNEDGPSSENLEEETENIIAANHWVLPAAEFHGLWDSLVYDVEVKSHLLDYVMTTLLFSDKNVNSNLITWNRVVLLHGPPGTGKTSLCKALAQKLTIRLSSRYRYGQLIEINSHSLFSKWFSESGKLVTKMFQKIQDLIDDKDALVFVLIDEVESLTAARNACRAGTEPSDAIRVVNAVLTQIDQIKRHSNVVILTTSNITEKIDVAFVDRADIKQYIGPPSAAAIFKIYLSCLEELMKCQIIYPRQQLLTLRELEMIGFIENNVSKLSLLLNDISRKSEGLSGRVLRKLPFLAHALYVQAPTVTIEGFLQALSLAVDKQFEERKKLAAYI
UniProt Q15691: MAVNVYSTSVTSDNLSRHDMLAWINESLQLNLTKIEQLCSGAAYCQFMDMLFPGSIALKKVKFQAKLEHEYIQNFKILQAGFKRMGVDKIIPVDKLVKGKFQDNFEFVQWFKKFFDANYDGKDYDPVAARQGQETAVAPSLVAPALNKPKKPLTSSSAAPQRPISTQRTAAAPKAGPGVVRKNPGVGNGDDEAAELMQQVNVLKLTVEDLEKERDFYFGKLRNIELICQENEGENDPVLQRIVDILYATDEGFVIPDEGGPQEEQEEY
UniProt Q2TAZ0: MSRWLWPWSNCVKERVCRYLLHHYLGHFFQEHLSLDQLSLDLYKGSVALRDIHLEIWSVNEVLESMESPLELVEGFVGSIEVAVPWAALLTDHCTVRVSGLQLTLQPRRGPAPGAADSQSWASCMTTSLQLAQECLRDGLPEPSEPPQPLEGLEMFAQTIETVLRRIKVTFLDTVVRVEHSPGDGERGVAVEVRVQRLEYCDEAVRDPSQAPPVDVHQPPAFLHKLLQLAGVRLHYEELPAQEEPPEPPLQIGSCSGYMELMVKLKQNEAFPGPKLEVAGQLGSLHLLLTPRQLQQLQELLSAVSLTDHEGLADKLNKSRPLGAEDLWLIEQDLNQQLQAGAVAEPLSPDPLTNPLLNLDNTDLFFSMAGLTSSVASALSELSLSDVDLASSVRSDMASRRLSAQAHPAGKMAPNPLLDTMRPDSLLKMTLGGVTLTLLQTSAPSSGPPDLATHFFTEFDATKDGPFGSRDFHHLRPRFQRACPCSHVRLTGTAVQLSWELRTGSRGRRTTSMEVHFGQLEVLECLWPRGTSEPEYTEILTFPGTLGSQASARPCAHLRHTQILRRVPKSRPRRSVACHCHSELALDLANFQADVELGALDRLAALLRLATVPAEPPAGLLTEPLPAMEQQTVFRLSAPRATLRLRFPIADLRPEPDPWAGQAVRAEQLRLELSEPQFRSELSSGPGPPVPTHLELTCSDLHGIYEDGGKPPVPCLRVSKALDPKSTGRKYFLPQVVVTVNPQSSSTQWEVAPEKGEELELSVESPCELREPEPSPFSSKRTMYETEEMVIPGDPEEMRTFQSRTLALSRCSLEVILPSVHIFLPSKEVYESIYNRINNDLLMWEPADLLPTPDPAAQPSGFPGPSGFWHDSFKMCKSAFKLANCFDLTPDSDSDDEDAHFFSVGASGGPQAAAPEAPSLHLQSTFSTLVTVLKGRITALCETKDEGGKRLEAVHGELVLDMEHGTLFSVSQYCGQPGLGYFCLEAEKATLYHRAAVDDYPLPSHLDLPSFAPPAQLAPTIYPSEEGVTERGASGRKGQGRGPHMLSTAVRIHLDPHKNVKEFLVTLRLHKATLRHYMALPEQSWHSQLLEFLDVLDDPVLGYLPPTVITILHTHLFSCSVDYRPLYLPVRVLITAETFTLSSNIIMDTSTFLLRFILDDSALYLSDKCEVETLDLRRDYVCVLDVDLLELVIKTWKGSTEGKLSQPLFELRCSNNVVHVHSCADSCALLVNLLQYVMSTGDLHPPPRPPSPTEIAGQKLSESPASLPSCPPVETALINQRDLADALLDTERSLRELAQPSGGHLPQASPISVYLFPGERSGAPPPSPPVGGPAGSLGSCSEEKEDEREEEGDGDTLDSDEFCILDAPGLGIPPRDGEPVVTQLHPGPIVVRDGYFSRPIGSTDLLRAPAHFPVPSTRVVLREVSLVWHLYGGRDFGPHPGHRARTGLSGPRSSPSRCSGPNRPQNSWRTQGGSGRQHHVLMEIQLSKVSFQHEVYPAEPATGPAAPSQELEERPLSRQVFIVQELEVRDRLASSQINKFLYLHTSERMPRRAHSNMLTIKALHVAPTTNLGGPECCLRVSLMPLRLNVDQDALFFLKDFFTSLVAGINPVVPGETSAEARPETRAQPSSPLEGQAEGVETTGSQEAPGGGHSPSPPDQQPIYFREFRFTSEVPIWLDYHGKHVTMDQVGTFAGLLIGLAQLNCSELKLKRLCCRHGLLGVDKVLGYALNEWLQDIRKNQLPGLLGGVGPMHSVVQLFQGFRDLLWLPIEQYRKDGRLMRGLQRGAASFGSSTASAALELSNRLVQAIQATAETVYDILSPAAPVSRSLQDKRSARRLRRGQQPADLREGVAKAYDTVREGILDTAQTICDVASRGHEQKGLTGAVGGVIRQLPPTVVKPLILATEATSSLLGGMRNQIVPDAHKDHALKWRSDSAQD
UniProt Q29RF7: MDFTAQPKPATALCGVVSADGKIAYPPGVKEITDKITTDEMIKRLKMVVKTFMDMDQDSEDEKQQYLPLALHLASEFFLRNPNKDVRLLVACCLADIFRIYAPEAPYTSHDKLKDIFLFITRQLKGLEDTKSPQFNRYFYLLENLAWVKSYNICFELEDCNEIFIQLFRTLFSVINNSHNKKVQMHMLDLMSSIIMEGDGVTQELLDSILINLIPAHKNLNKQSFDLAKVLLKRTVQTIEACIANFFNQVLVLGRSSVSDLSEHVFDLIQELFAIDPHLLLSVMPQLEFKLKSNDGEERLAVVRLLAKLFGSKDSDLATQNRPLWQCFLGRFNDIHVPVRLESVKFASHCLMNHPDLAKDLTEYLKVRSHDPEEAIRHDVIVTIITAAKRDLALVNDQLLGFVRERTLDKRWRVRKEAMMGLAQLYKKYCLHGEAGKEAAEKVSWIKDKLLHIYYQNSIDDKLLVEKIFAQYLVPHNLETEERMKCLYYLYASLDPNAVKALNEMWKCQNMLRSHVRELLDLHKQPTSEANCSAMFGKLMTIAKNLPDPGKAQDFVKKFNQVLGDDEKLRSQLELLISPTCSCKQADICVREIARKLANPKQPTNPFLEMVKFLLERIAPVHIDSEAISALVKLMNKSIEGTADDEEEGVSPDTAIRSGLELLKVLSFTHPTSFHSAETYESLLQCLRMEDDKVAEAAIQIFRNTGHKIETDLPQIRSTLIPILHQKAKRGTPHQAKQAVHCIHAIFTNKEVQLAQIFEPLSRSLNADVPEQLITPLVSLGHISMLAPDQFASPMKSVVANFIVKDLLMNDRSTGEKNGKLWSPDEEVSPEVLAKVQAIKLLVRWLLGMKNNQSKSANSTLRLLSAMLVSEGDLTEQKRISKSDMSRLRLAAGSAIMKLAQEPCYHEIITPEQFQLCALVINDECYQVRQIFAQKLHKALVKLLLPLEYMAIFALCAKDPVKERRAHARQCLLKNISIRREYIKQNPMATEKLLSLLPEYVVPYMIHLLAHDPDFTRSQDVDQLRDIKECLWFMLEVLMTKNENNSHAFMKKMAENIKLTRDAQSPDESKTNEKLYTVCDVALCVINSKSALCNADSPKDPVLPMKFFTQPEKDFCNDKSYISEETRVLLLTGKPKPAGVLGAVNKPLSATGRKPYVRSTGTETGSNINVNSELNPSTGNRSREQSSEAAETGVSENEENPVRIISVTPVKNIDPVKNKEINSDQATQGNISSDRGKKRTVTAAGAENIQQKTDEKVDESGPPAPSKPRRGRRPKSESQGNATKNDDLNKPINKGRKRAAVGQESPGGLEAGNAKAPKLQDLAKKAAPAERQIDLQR
UniProt Q15022: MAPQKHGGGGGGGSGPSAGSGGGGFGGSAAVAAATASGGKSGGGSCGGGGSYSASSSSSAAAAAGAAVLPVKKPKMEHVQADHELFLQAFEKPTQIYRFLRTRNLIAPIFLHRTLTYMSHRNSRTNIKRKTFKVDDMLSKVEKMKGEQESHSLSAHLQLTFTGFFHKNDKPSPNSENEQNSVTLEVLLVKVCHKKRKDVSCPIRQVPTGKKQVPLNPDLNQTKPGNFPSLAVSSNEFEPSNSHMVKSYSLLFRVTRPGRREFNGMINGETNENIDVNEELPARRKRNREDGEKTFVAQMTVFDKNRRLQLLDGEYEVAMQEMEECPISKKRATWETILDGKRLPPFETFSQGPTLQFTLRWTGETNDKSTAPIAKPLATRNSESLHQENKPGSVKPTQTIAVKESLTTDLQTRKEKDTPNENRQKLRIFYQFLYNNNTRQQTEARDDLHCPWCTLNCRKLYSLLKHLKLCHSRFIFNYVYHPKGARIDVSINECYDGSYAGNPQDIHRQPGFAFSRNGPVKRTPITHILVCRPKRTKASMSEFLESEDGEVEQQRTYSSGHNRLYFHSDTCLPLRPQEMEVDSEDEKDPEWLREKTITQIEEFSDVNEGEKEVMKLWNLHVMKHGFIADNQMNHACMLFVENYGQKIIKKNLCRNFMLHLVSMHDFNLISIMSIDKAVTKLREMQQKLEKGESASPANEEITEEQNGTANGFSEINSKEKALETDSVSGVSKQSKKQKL

Compound: COC(=O)/C=C/c1ccccc1 [methyl cinnamate]
Test: log2 ratio of iodoacetamide-alkyne labeling of the cysteine site, DMSO over compound (competition); higher = stronger covalent engagement of the cysteine by the compound, active = 1 or more
Settings: 500 µM; treatment time 1 h; system: HEK293T cell lysate
In short: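 HEK293T lysate (2 mg/mL) was incubated with electrophile (500 µM) or vehicle for 1 h at ambient temperature and then with iodoacetamide alkyne for 1 h. Labelled proteins were clicked to sCIP-TMT reagents, pooled, digested, enriched on streptavidin and measured by Orbitrap Eclipse LC-MS/MS with FAIMS, with FragPipe quantification. The per-cysteine log2 competition ratio is mean control-channel reporter intensity over mean compound-channel reporter intensity. Across three replicates with duplicate channels, cysteines quantified in only one replicate were excluded.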

| Target | log2 ratio of iodoacetamide-alkyne labeling |
| --- | --- |
| MAP7D1 C361 (UniProt Q3KQU3) | inactive: 0.279 |
| LRRC41 C170 (UniProt Q15345) | inactive: -0.189 |
| UniProt Q15365_C158 | inactive: 0.396 |
| DBN1 C308 (UniProt Q16643) | inactive: -0.0681 |
| OCIAD2 C27 (UniProt Q56VL3) | inactive: 0.293 |
| UniProt Q15750_C62 | inactive: 0.335 |
| HNRNPUL2 C452 (UniProt Q1KMD3) | inactive: -0.123 |
| UniProt Q15365_C54 | inactive: 0.315 |
| HNRNPUL2 C408 (UniProt Q1KMD3) | inactive: -0.11 |
| SS18 C34 (UniProt Q15532) | inactive: 0.0882 |
| TRIP13 C14 (UniProt Q15645) | inactive: 0.0795 |
| MAPRE1 C228 (UniProt Q15691) | inactive: 0.352 |
| UniProt Q3LXA3_C24 | inactive: -0.448 |
| ETFDH C118 (UniProt Q16134) | inactive: 0.437 |
| CPSF6 C159 (UniProt Q16630) | inactive: 0.243 |
| LLGL1 C725 (UniProt Q15334) | inactive: 0.117 |
| EFTUD2 C639 (UniProt Q15029) | inactive: 0.133 |
| ATG2A C1870 (UniProt Q2TAZ0) | inactive: 0.057 |
| MED1 C443 (UniProt Q15648) | inactive: 0.242 |
| PDS5A C92 (UniProt Q29RF7) | inactive: -0.079 |
| SUZ12 C325 (UniProt Q15022) | inactive: -0.0127 |
| HNRNPUL2 C538 (UniProt Q1KMD3) | inactive: 0.149 |

2 neighbouring records out of the list so far, quoted:

| Target | log2 ratio of iodoacetamide-alkyne labeling |
| --- | --- |
| MED1 C443 (UniProt Q15648) | inactive: 0.242 |
| PDS5A C92 (UniProt Q29RF7) | inactive: -0.079 |
